US9573967B2, “N-heterocyclic carbene gold complexes with anticancer properties and methods of use thereof” (KING FAHD UNIVERSITY OF PETROLEUM AND MINERALS, priority 2015, dated 2017)

Experiments:
[1] = system: A549 (human lung carcinoma) cell line; experiment: In vitro cytotoxicity, MTT assay, A549; type: cell-based; conditions: 24 h incubation with complex, read-out: IC50 values against A549 cancer cell line
Procedure: (§1) The in vitro cytotoxicity tests were carried out for the gold(I) precursor, labeled as complex 0 and the three synthesized complexes labeled as complex 1, 2 and 3 and compared with cisplatin (standard classical anticancer drug) against three human cancer cell lines, HCT15, HeLa and A549 using MTT assay. The dose dependent cytotoxic effect was obtained by the stipulated increase in concentrations of cisplatin and gold complexes 0-3 against the fixed number of human cancer cells. The IC50 concentration of cisplatin and complexes 0-3 for different human cancer cell lines was obtained from a curve between compound concentration and percentage viability of cells (FIGS. 5-10, Table 6).
(§2) In phase contrast micrographs, a decreasing cell density and deformed cellular morphology could be observed with increasing concentration of complexes 0-3 (FIGS. 11-13). […] The IC50 concentrations of gold complexes were calculated from a separate curve between complex concentration and % viability of cells plotted in Microsoft Excel 2007 (graphs not shown) using MTT assay data and explained by logarithmic regression equations (equations not shown).
(§3) The metal precursor (complex 0) and the three synthesized compounds 1-3 were evaluated for their in vitro cytotoxic activity against HCT15 (human cancer), HeLa (human cervical cancer) and A549 (human lung carcinoma) cell lines. […]

[2] = system: HeLa (human cervical cancer) cell line; experiment: In vitro cytotoxicity, MTT assay, HeLa; type: cell-based; conditions: 24 h incubation with complex, read-out: IC50 values against HeLa cancer cell line
Procedure: as §1, §2, §3

With `N.N.[Cl][Pt][Cl]` [Cisplatin, cisplatin] the IC50 [1] was 41.6 µM and the IC50 [2] was 19.4 µM.
